Experimental data: PubChem BioAssay AID1259300 (Sanger Institute, 2017)
Aim: 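siRNA screen of kinases and common colorectal cancer mutant genes, alone or with drugs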 (primary screen). Cells: HCT15 colorectal cancer cells. Knock-down reagent: siRNA pool against human genes. Challenge: anchor drug or DMSO vehicle added 24 h after seeding: BYL719 1 µM, cetuximab 5 µg/ml, trametinib 10 nM; drug doses chosen to barely affect viability alone. Measured: 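Cell viability after knock-down, as fraction of non-targeting pool wells averaged over replicates, plus robust z-score for knock-down alone; synergy score per drug (BYL719 1 µM, cetuximab 5 µg/ml, trametinib 10 nM)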. Scale: viability z-score, siRNA alone: higher = more viable cells after knock-down. Call rule: 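Called active (essential) if viability z-score with knock-down alone falls below -3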. Calls: active = essential: knock-down alone lowers viability (z below -3); inactive = no strong viability loss with knock-down alone.
Shown is a random part of 794 reagents tested. Over the whole deposit, 18 (2.3%) were called active. 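Calls rest on knock-down alone, not drug synergy; depositor treated synergy scores above 0.15 as synergistic; drug doses alone had little viability effect.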 Unmarked entries are inactive. Not all columns of the deposit are shown. No sequences are given here. Not stated in the record: the amount of reagent, the time to read-out.

Depletion of PSKH1 resulted in: viability z-score, siRNA alone 0.625.
After knock-down of RPS6KA1, the record shows viability z-score, siRNA alone 0.625.
LMTK3 gave viability z-score, siRNA alone 0.253.
Silencing of STK32A gave: viability z-score, siRNA alone 0.625.
For MATK, the entry reads viability z-score, siRNA alone 0.625.
DNMT3A gave viability z-score, siRNA alone 0.493.
Silencing of AMHR2 resulted in: viability z-score, siRNA alone 0.625.
SMG1 showed viability z-score, siRNA alone 0.0182.
For PIK3C2B, the values are viability z-score, siRNA alone 0.625.
For PPP2R1A, the values are viability z-score, siRNA alone -0.954.
CDK7 showed viability z-score, siRNA alone 0.356.
Against TGFBR1, the values are viability z-score, siRNA alone -0.618.

2 of these entries in another layout:
{"gene": "PSKH1", "viability z-score, siRNA alone": 0.625}
{"gene": "RPS6KA1", "viability z-score, siRNA alone": 0.625}
